Assay [1] deals with NEDD4L-HA (UniProt Q96PU5). Nature of the assay: co-IP; PINK1-Flag and NEDD4L-HA transfected into SH-SY5Y, co-immunoprecipitation assay.
In assay [2] the target is NEDD4L (neuronal precursor cell-expressed developmentally downregulated 4-like), endogenous (human (endogenous in SH-SY5Y)) (UniProt Q96PU5). Description: co-IP; SH-SY5Y lysates immunoprecipitated with an anti-NEDD4L antibody, western blotting with an anti-PINK1 antibody; endogenous proteins; also done in cells transfected with NEAT1 (the interaction was promoted). (Immunoblotting shows a protein as a band on a membrane.)

Chains of the proteins cited; added tags and fusions are not shown. Residues count along the entry.
UniProt Q96PU5: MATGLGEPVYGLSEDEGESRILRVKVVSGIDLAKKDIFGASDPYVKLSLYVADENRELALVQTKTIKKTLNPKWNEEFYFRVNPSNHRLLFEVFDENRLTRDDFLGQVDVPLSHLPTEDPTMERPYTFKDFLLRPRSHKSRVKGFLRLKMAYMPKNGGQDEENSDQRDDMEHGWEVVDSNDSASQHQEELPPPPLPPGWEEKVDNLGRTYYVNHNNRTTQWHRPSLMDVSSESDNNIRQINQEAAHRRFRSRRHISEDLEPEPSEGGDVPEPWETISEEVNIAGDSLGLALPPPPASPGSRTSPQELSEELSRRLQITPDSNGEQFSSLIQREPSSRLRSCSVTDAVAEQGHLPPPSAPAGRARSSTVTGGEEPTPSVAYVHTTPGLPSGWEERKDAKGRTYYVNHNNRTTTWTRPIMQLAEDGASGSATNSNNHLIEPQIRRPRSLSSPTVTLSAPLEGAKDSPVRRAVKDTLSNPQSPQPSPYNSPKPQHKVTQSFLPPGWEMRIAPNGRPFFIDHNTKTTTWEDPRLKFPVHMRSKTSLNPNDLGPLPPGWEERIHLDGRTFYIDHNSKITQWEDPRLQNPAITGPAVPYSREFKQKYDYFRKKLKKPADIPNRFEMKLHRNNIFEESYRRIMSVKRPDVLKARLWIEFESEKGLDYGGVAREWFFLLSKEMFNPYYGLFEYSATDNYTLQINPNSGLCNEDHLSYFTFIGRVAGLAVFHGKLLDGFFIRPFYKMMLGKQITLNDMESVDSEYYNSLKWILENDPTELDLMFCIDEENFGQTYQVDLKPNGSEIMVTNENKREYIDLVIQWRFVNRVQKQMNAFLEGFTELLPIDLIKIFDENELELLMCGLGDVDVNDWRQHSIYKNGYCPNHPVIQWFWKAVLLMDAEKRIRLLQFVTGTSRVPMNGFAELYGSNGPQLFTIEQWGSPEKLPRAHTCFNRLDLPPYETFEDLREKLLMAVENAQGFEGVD
UniProt Q9BXM7, residues 78-581: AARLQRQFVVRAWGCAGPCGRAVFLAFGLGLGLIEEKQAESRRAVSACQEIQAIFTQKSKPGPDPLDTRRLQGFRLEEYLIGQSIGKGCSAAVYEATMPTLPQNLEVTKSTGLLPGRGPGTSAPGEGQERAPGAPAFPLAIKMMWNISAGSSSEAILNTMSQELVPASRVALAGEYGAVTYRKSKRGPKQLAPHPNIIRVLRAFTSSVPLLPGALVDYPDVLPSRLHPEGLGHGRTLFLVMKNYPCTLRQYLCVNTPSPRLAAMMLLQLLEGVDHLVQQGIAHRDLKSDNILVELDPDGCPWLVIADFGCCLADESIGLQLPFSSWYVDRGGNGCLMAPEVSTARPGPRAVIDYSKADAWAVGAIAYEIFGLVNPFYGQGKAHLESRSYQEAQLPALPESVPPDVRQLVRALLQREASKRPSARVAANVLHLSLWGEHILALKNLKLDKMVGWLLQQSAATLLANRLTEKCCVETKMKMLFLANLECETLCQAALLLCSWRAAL

No constants are given. Whether binding was seen depends on the method and setting. Binding seen in cells or lysates may run through a third protein. Some results given as binding are weak or reduced against the parent protein; the word gives no strength.

Consider PINK1-Flag (from UniProt Q9BXM7 78-581), for which the binding result in assay [1] is recorded as “binds”. Regarding “PTEN-induced putative kinase 1 (PINK1), endogenous (from UniProt Q9BXM7 78-581)”, the binding entry in assay [2] is reported as “binds”.

Source of the values: article PMC7043103.
